The numbers were not newly measured in patent US20060253263A1, “Method to optimize drug selection, dosing and evaluation and to help predict therapeutic response and toxicity from immunosuppressant therapy” (priority 2005, published 2006), which cites them from elsewhere.

For this data set the following is noted: cited from earlier work.

Each structure is given as a SMILES string. Like-named read-outs stand apart in the source and are kept apart here.

As for `O=c1[nH]cc(F)c(=O)[nH]1` [5-FU, 5-Fluorouracil], the elimination half-life by setting is: (normal individuals) 10 to 15 min; (people genetically deficient in DPD) “about 2.5 hours”.
